# Test results reported in publication PMC11390906.
# No constants are given. Whether binding was seen depends on the method and setting. Binding seen in cells or lysates may run through a third protein. A result given as binding can be weak or reduced; the word gives no strength.
# Target: purified human coagulation factor XII (FXII) zymogen (human)
# Experiment: co-IP; same experiment as a5, for the uPAR-based peptides (300 µM, 1 h pretreatment) and the purified FXII (62 nM, Zn2+ 10 µM, 24 h) added to HKC-8 cells; read out as FXII co-precipitated with uPAR; both purified
row,binding,Binder
1,binds,"DLCNQGNSGRAVTYSRSRY [uPAR-based peptide DL19 (domain 1, residues 96-114)]"
2,binds,"DVVTHWIQEGEEGRPKDDRH [uPAR-based peptide DV20 (domain 2, residues 146-165)]"
